Source: patent publication US5138069A (E. I. Du Pont de Nemours and Company, priority 1988, dated 1992)
For some of these results: At least one read-out could not be matched to a standard name with certainty. For some of these results: At least one compound was matched to its structure with a doubt left.

Assays:
[1] = tested on: Renal Hypertensive Rats; assay: Antihypertensive effects in renal hypertensive rats; format: in vivo; details: Table 25, 10 mg/kg or less
Procedure: This procedure increases blood pressure by increasing renin production with consequent elevation of AII levels. Compounds are administered orally at 100 mg/kg and/or intravenously via a cannula in the jugular vein at 10 mg/kg. Arterial blood pressure is continuously measured directly through a carotid artery cannula and recorded using a pressure transducer and a polygraph. Blood pressure levels after treatment are compared to pretreatment levels to determine the antihypertensive effects of the compounds (See Table 25).
(§1) Compounds listed in Table 26 were tested in the same manner as described for Table 25, except that in the test for antihypertensive effects in renal hypertensive rats, the compounds were administered orally at 30 mg/kg and intravenously at 3 mg/kg.

[2] = target: AII receptor; assay: Angiotensin II receptor binding (displacement of 3H-AII); details: read-out: Angiotensin II Receptor Binding IC50; Table 25; rat adrenal cortical microsomes, 2 nM 3H-AII, 1 hour, room temperature
Procedure: The assay was carried out according to the method described by [Glossmann et al., J. Biol. Chem., 249, 825 (1974)], but with some modifications. The reaction mixture contained rat adrenal cortical microsomes (source of AII receptor) in Tris buffer and 2 nM of ^3 H-AII with or without potential AII antagonist. This mixture was incubated for 1 hour at room temperature and the reaction was subsequently terminated by rapid filtration and rinsing through glass micro-fibre filter. Receptor-bound ^3 H-AII trapped in filter was quantitated by scintillation counting.
as §1

| SMILES | Antihypertensive Effects in Renal Hypertensive Rats, Intravenous Activity [1] | IC50 [2] [nM] |
| --- | --- | --- |
| CCCCc1nc(Cl)c(/C=C/CO)n1Cc1ccc(NC(=O)c2ccccc2C(=O)O)cc1 [Example 241] | + (Significant decrease in blood pressure at 10 mg/kg or less) |  |
| CCCCc1nc(CO)c(Cl)n1Cc1ccc(-c2ccccc2-c2n[nH]c(C(F)(F)F)n2)cc1 [Example 341, 2-n-Butyl-5-chloro-4-hydroxy-methyl-1-[(2'-(5-trifluoromethyl-1,2,4-triazol-3-yl)biphenyl-4-yl)methyl]imidazole] |  | 270 |
| CCCSc1ncc(CO)n1Cc1ccc(-c2ccccc2C(=O)O)cc1 [Example 93, 1-[(2'-carboxybiphenyl-4-yl)-methyl]-2-propylthio-5-hydroxymethylimidazole] |  | 890 |
| CCCCc1nc(Cl)c(CC(C)C(=O)N[C@H](C)c2ccccc2)n1Cc1ccc(NC(=O)c2ccccc2C(=O)O)cc1 (single isomer, unassigned) [Example 239, d and l 3-[1-(4-(2-Carboxybenzamido)benzyl-2-butyl-4-chloroimidazol-5-yl]-2-methylpropanoic acid, d-(+)-α-methylbenzylamide] | + (Significant decrease in blood pressure at 10 mg/kg or less) |  |
